Data as given in PubChem BioAssay AID2685 (National Center for Advancing Translational Sciences (NCATS), 2010).
This is one part of the list. Further columns of the screen follow, without active or inactive calls. The list favours compounds with an active or inconclusive main result. Words in brackets tell the shape of the fitted curve; partial curves, single points and poor fits give uncertain potencies.

Test: qHTS Assay for Lipid Storage Modulators in Drosophila S3 Cells;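 for cell number change: cells counted by Cell Tracker Red CMTPX staining in the red channel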
Conditions: BODIPY lipid droplet fluorescence, 18-24 h; for cell number change: measured here: cell count max response, cells fed with added oleic acid
Method in brief: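 Drosophila S3 cells loaded with oleic acid (400 uM, as added) and compounds at several concentrations; lipid droplets imaged by 488-nm laser-scanning cytometry, 500–530 nm intensity and object ratio to cell channel. Percent activity normalized to 20 uM Triacsin C.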

[1] = measured here: lipid fluorescence (Fed channel) AC50, cells fed with added oleic acid
[2] = measured here: cell number channel AC50, cells fed with added oleic acid

SMILES | cell number change [%] | AC50 [1] | AC50 [2]
CN(C)c1ccc(C(=O)N(Cc2ccccc2)Cc2ccccc2)cc1 | 4.4 | 32.6 µM [rising, single point] | –
COc1ccc(OC)c(S(=O)(=O)Nc2ccccc2F)c1 | -124 | 0.0517 µM [falling, full curve, poor fit] | 32.6 µM [falling, partial curve]
CSc1nnc(SCC(=O)NC(=O)c2ccccc2)s1 | 2.5 | – | –
O=C(COC(=O)CSc1ccc(Cl)cc1)NCCc1ccccc1 | – | – | 0.461 µM [rising, single point]
Cc1cc(C)nc(N2CCC(C(=O)NCCc3ccccc3)CC2)n1 | 70.1 | 14.6 µM [rising, partial curve] | 11.6 µM [rising, partial curve, poor fit]
Cc1cccc(C)c1NC(=O)COC(=O)COc1ccc2c(C)cc(=O)oc2c1 | 11.3 | 9.2 µM [rising, partial curve, poor fit] | –
COCCC(=O)N1CCC(Oc2ccc(C(=O)NCCSC)cc2)CC1 | -0.787 | 8.2 µM [rising, partial curve] | –
Cc1cc(C)n(CC(=O)NNC(=O)C2CC(=O)N(Cc3ccccc3Cl)C2)n1 (stereo unspecified) | 10.9 | – | –
COc1cc(OC)cc(C(=O)N[C@H](C(=O)OCc2cc(=O)oc3cc(C)ccc23)C(C)C)c1 | 1.57 | – | 1.16 µM [rising, single point]
COc1ccc(N(C(=O)c2cnsn2)C(C(=O)NC2CCCCC2)c2ccncc2)cc1 (stereo unspecified) | 1.96 | 0.731 µM [falling, full curve] | –
O=S1(=O)CCN2C=Nc3sc4c(c3C2=N1)CCCC4 | -10.3 | 14.6 µM [falling, single point] | 7.31 µM [falling, single point]
CC(=O)c1ccc(NC(=O)c2ccccc2Sc2ncnc3sc(C)c(C)c23)cc1 | 38.4 | – | 14.6 µM [rising, partial curve]
COc1ccc(C(=O)Nc2nc(-c3ccc(S(=O)(=O)N4CCOCC4)cc3)cs2)cc1 | 10.7 | 23.1 µM [rising, partial curve] | –
Cc1ccc(N2C(=O)C(CN3CCCC3)C2c2ccccc2)cc1 (stereo unspecified) | -7.64 | 16.4 µM [falling, single point] | –
C=CCc1cccc2cc(NC(C)=O)c(=O)oc12 | 14.6 | 2.91 µM [rising, single point] | –
O=C(NCCCn1ccnc1)/C(=C\c1ccco1)NC(=O)c1ccco1 | 50 | 0.164 µM [rising, full curve] | 0.184 µM [rising, full curve, poor fit]
COc1cc(C(=O)c2c(C)c(CCC#N)n3ccccc23)cc(OC)c1OC | – | – | 6.51 µM [rising, single point]
Cc1cc(NC(=O)Cc2ccsc2)ccc1Br | 34 | 29.1 µM [rising, single point] | 10.3 µM [rising, single point]
CN1CCN(C(=O)c2cc3ccccc3[nH]2)CC1 | -6.57 | – | –
O=C(CCCCC(=O)NNC(=O)COc1ccccc1)NNC(=O)COc1ccccc1 | 71.4 | – | 25.9 µM [rising, partial curve]

SMILES | cell number change [%] | AC50 [1] | AC50 [2]
CCCCN(CCCC)C(=S)NC(=O)C(C)(C)C | -23.7 | 0.0651 µM [falling, full curve, poor fit] | –
Cc1ccc(C(=O)C(OC(=O)c2cnccn2)c2ccccc2)cc1C (stereo unspecified) | 26.8 | 3.66 µM [rising, partial curve] | –
Cc1cccc(C(=O)OCC(=O)c2c(N)n(CC(C)C)c(=O)n(C)c2=O)c1[N+](=O)[O-] | 0.278 | – | 1.16 µM [rising, partial curve]
O=C(N/C(=C/c1ccc(Br)cc1)C(=O)N1CCCC1=O)c1ccco1 | -20.6 | – | –
O=C(CCNC(=O)c1ccccc1Cl)NCc1ccncc1 | 10.1 | 29.1 µM [falling, single point] | –
N#CCCN(C(=O)COC(=O)c1cc2ccccc2oc1=O)c1ccccc1 | 31.5 | 4.61 µM [rising, partial curve] | 13 µM [rising, partial curve, poor fit]
Cc1c(S(=O)(=O)Nc2ccc3c(c2)OCCO3)c(=O)n(C)c(=O)n1C | 1.52 | – | –
O=C(CSc1nc2ccccc2c2nc3ccccc3n12)NCc1ccco1 | – | 0.092 µM [rising, full curve, poor fit] | 0.82 µM [rising, partial curve]
CC(C)N(Cc1ccccc1)C(=O)/C=C/c1ccccc1[N+](=O)[O-] | -19 | 29.1 µM [falling, single point] | –
CCOc1ccccc1OCC(=O)NNC(=S)NC1CCCCC1 | 13.8 | – | –
COC(=O)c1sccc1NC(=O)C1CC(C)=C(C)CC1C(=O)O (stereo unspecified) | -35.9 | 29.1 µM [falling, single point] | 20.6 µM [falling, single point]
COc1ccc2cc(CN(Cc3cccnc3)Cc3nnnn3Cc3ccccc3)c(=O)[nH]c2c1 | 69.9 | 6.51 µM [rising, single point] | 2.06 µM [rising, full curve]
O=C(NNC(=O)c1ccc(S(=O)(=O)N2CCCC2)cc1)c1ccc(Br)cc1 | 27.7 | – | –
Cc1nn2cc(-c3ccccc3)nc2s1 | 9.84 | 10.3 µM [rising, partial curve] | –
CC(Sc1ncnc2sc(-c3ccccc3)cc12)C(=O)N1CCNC1=O (stereo unspecified) | 0.387 | 7.31 µM [rising, partial curve] | –
Cc1cc(N/N=C/c2ccc(O)cc2O)c2ccccc2n1 | -16.3 | 1.46 µM [rising, partial curve] | –
CC1(C)C(C#N)=C(N)OC2=C1C(=O)CCC2 | – | – | 0.58 µM [rising, single point]
CC1(C)Cc2c(sc(NC(=O)c3ccco3)c2C(=O)O)CO1 | -10.9 | 0.146 µM [falling, full curve, poor fit] | 0.0058 µM [falling, full curve, poor fit]
COc1ccc2cc(C#N)c(NC(C)C)nc2c1 | 98.2 | – | 20.6 µM [rising, partial curve]
CNC(=O)c1ccc(N(Cc2ccccc2)S(C)(=O)=O)cc1 | 1.76 | 5.8 µM [falling, full curve] | –

SMILES | cell number change [%] | AC50 [1] | AC50 [2]
CN(CC(=O)NCCc1ccccn1)S(=O)(=O)c1ccc(Cl)cc1 | -0.481 | – | –
C/C(CC(=O)NC12CC3CC(CC(C3)C1)C2)=N\NC(=O)Cc1cccs1 | -4.6 | 20.6 µM [falling, single point] | –
C=C(C)CSc1nnc(-c2cccc(S(=O)(=O)N(C)C)c2)n1-c1cc(OC)ccc1OC | – | 6.51 µM [rising, single point] | 6.51 µM [rising, single point]
CCCc1ccc(Oc2cn[nH]c2-c2ccc(O)cc2O)cc1 | -49.7 | 2.06 µM [falling, partial curve, poor fit] | 29.1 µM [falling, single point]
COc1cc(/C=N/N2CCCCC2)cc([N+](=O)[O-])c1O | 22.9 | 29.1 µM [rising, single point] | –
CC1CN(S(=O)(=O)c2ccc(C(=O)Nc3sccc3C(N)=O)cc2)CC(C)O1 (stereo unspecified) | -0.348 | 0.651 µM [rising, partial curve] | –
O=C(CNS(=O)(=O)c1ccc2c(c1)OCCCO2)N1CCN(c2ccc(F)cc2)CC1 | -2.08 | 1.46 µM [rising, partial curve, poor fit] | –
COc1cccc(CNC(=O)c2cc(=O)[nH]c3ccc(S(=O)(=O)N4CCOCC4)cc23)c1 | -4.65 | – | 3.66 µM [falling, partial curve]
CCOc1ccc(N(CC(=O)NCc2ccccc2)S(=O)(=O)c2c(C)noc2C)cc1 | 38.5 | 0.651 µM [rising, full curve] | 0.651 µM [rising, full curve, poor fit]
Cc1ccc(-n2nc(C)c3c(C)c(CCC(=O)NCc4ccco4)c(C)nc32)cc1 | -24.4 | 1.84 µM [falling, partial curve] | –
CCc1c(O)nc(SC2CC(=O)N(c3ccc(F)c(Cl)c3)C2=O)[nH]c1=O (stereo unspecified) | 8.73 | 6.51 µM [rising, single point] | –
Cc1cccc2nc(CNC(=O)C3CCC(=O)N(Cc4ccccc4F)C3)cn12 (stereo unspecified) | 11.7 | – | –
Fc1ccc(-n2nnc(-c3ccccc3Cl)n2)cc1 | -18.6 | 29.1 µM [falling, single point] | –
Cc1c(C(=O)Nc2ccccc2Cl)oc2ccc(S(=O)(=O)N3CCC4(CC3)OCCO4)cc12 | -14.2 | 0.231 µM [falling, full curve, poor fit] | –
CN(CC(=O)Nc1ccccc1Br)C(=O)CNC(=O)c1ccc2c(c1)OCO2 | -0.854 | 0.00651 µM [rising, full curve, poor fit] | –
CCOC(=O)C1=C(COC(=O)/C=C/c2ccc(C)o2)NC(=O)NC1C (stereo unspecified) | 8.17 | 32.6 µM [rising, single point] | –
Cc1n[nH]c(C)c1CCC(=O)N/N=C/c1c(C)[nH]c2ccccc12 | 42.5 | 14.6 µM [rising, partial curve] | 16.4 µM [rising, partial curve]
O=C(NC(=S)Nc1ccccc1N1CCN(C(=O)c2ccccc2)CC1)c1cccs1 | 14.4 | – | 1.46 µM [rising, partial curve, poor fit]

Four entries from above in another layout:
O=C(CNS(=O)(=O)c1ccc2c(c1)OCCCO2)N1CCN(c2ccc(F)cc2)CC1
  cell number change [%]: -2.08; AC50 [1]: 1.46 µM [rising, partial curve, poor fit]
CCOc1ccc(N(CC(=O)NCc2ccccc2)S(=O)(=O)c2c(C)noc2C)cc1
  cell number change [%]: 38.5; AC50 [1]: 0.651 µM [rising, full curve]; AC50 [2]: 0.651 µM [rising, full curve, poor fit]
CN(CC(=O)Nc1ccccc1Br)C(=O)CNC(=O)c1ccc2c(c1)OCO2
  cell number change [%]: -0.854; AC50 [1]: 0.00651 µM [rising, full curve, poor fit]
Cc1n[nH]c(C)c1CCC(=O)N/N=C/c1c(C)[nH]c2ccccc12
  cell number change [%]: 42.5; AC50 [1]: 14.6 µM [rising, partial curve]; AC50 [2]: 16.4 µM [rising, partial curve]
